Some entries share one result that the patent states for a list of compounds.
How the values were obtained:
[1] = tested on: MALAT1 triple helix; assay: RNase A enzymatic degradation assay; format: biochemical, human; settings: 5-minute time point, relative to DMSO control
Method: The procedure was adapted from a published protocol for exonucleolytic enzymatic degradation assay. (Donlic A, et al. (2020) Nucleic Acids Res. 48(14):7653-7664). The MALAT1 destabilizing small molecules published by Le Grice (Abulwerdi F A, et al. (2019) ACS Chem Biol. 14(2):223-235) and co-workers SM5 and SM16 were purchased from ChemBridge. For a typical 70 μL reaction, […] of MALAT1 triple helix RNA was annealed in the same buffer used for IDA and DSF experiments (20 mM HEPES-KOH, 52 mM KCl, 0.1 mM MgCl2, pH=7.4) by heating at 95° C. for 3 minutes, snap-cooling on ice for 10 minutes, and leaving the solution at room temperature for 1 hr.
RNase A enzyme (ThermoFisher) was diluted to 1.46 nM and incubated with 1 M NaCl for 30-35 minutes to achieve ssRNA selectivity as reported. (Struhl K, et al. (1989) Current Protocols in Molecular Biology. 8(1):3.13.1-3.13.3). Next, the RNA was mixed with 0.2 μM of a GC-rich DNA duplex, […] of small molecule/DMSO and incubated at room temperature for 20 minutes. Following the incubation, […] of RNase A was added, and the reaction was incubated at 37° C. for 1 hour in a thermal cycler with a heated lid (Eppendorf). […] Reactions were analyzed on pre-cast 15% PAGE-Urea gels (Invitrogen) in 1×TBE buffer. […] Gel band intensity of the MALAT1 triple helix and DNA loading control were quantified using ImageJ software. […]
To quantify time-dependent endonucleolytic degradation for each sample, the intensity was normalized using Equation (3), and fold-difference was calculated as listed in Equation (4) as previously reported. […]
where y is fold-difference of the exonucleolytic degradation for the specific sample, with normalized areas for its specific time point x and time point 0 calculated as described in Equation (3). Percent RNA degraded was calculated for every time point using Equation (5). […]
Experimental results shown in FIG. 6C are plotted as three independent replicates and standard deviation between replicates as error bars. Relative fold change between treated condition and DMSO was calculated from Equation (6). […]

[2] = tested on: MALAT1 triple helix; assay: Differential scanning fluorimetry (DSF), thermal stability; format: binding, human; settings: equimolar RNA:small molecule, versus DMSO vehicle
Method: Differential scanning fluorimetry experiments were performed as previously reported. (Donlic A, et al. (2020) Nucleic Acids Res. 48(14):7653-7664). All experiments were performed in white 96 well plates in a LightCycler® 96 (Roche). In a typical experiment, 4 μM of RNA was annealed in the same buffer used for indicator displacement assays (20 mM HEPES-KOH, 52.6 mM KCl, 0.1 mM MgCl2, pH=7.4) by heating at 95° C. for 3 minutes, snap-cooling on ice for 10 minutes, and leaving the solution at room temperature for 1 hr. Then, 42 μL of this solution was aliquoted to wells and 5 μM of ligand was added (2.5 μL of water, 2.0 μL of DMSO, 0.5 μL of 500 μM small molecule stock). The mixture was left to incubate at room temperature for 5 minutes, after which 3 μL of a 20 μM Quant-iT™ RiboGreen™ (ThermoFisher Scientific) dye stock solution in appropriate buffer was added to each well. The 96 well plate was then sealed with an optically clear foil and centrifuged for 1 minute at 4000 rpm prior to being placed in the instrument. The light cycler program was created by selecting the melting curve method; fluorescence intensity was monitored using the SYBR Green I/HRM dye filter combination (465-510 nm) from 37-98° C. at a ramp rate of 0.01° C./second with 150 acquisitions per° C. Melting profiles were obtained by Tm analysis in the LightCycler® 96 software (SW 1.1).
The MALAT1 triple helix is known to confer stability to the full-length transcript and protect it from RNase-mediated degradation, ultimately resulting in transcript accumulation and aggregation in nuclear speckles. (Brown J A, (2020) WIREs RNA. 11(6):e1598; Wilusz J E, et al. (2012) Genes Dev. 26(21):2392-2407; Brown J A, et al. (2014) Nat Struct Mol Biol. 21(7):633-640; Tycowski K T, et al. (2016) Cell Rep. 15(6):1266-1276). To better understand how the diminazene focused library affects the MALAT1 triplex stability, the entire library was evaluated via differential scanning fluorimetry (DSF) (FIG. 5A). […]

SMILES	strength class of stabilizer / destabilizer (change in degradation) [1]	effect on Tm1 (ΔTm1, first melting peak) [2]
CN(C)CCCNC(=N)c1cccc(/N=N/Nc2cccc(C(=N)NCCCN(C)C)c2)c1 [DMZ-M1]	strong stabilizer (strong stabilizers (≥50% decrease in degradation))	
N#Cc1cccc(/N=N/Nc2cccc(C#N)c2)c1 [DMZ-MS]		< 1 °C
CN(C)CCCNC(=N)c1ccccc1/N=N/Nc1ccccc1C(=N)NCCCN(C)C [DMZ-O1]	strong stabilizer (strong stabilizers (≥50% decrease in degradation))	
N=C(NCc1ccccc1Cl)c1ccccc1/N=N/Nc1ccccc1C(=N)NCc1ccccc1Cl [DMZ-O6]	strong stabilizer (strong stabilizers (≥50% decrease in degradation))	
N#Cc1ccccc1/N=N/Nc1ccccc1C#N [DMZ-OS]		< 1 °C
N#Cc1ccc(/N=N/Nc2ccc(C#N)cc2)cc1 [DMZ-PS]		< 1 °C

Source: patent US20250282714A1, “COMPOSITIONS FOR AND METHODS OF MODULATING RNA STABILITY” (Duke University, priority 2022, published 2025)
